# The campaign covered roughly 400,000 compounds. About 13,000 (3.2%) were called active. The shares of active, inactive and inconclusive entries below differ from those in the screen. Calls come from the whole dose curve; as a rule, active = well fitted cell-killing curve with a large enough effect; inconclusive = small, poorly fitted or top-dose-only effect, or effect the other way; inactive = flat fitted curve, though single readings scatter. Potencies of inconclusive entries are doubtful fits and often do not repeat.
# Test: qHTS assay for MDR1-selective chemotherapeutics: Primary screen using the drug-selected MDR subline cells KB-V1; note: nearly all actives have a fitted effect of over 60% in size
# Settings: KB-V1 MDR cells viability, CellTiter-Glo, 72 h; activity change, negative = cytotoxicity: at 46.1 µM (top of the series)
# How it was run: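 Compound-treated KB-V1 multidrug-resistant cells, 72 h, 37 degrees C; viability by CellTiter-Glo. Fitted qHTS curves give the values.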
# % is set by controls: 0 for no effect and ±100 for the full control effect; potency is the fitted concentration of half-maximal effect.
Compound,Potency,"activity change, negative = cytotoxicity"
O=C(NCCc1ccc(Cl)cc1)c1cc(-c2ccncc2)nc2ccccc12,"inconclusive: 9.2 µM [cytotoxic, partial curve]",
COc1ccc(CNc2cccc3[nH]c(C(F)(F)F)nc23)cc1,inactive,
N#CN(Cc1ccccc1)Cc1ccccc1,"inconclusive: 9.2 µM [rising, partial curve, poor fit]",
COc1ccc(OC)c2sc(NC(=O)CCSc3ccccc3)nc12,inactive,
CCNC(=S)NNC(=O)c1cccnc1,inactive,
Nc1c(N(CCC2=CCCCC2)C(=O)COc2ccc(F)cc2)c(=O)[nH]c(=O)n1Cc1ccccc1,inactive,
Cc1cc(C(=O)N(C)CC(=O)Nc2ccc(Cl)c(C(F)(F)F)c2)no1,"inconclusive: 20.6 µM [cytotoxic, single point]",
CCN(C(=O)CSc1nnc(Cn2nnc3ccccc32)o1)c1nc(C)cs1,"inconclusive: 29.1 µM [cytotoxic, single point]",
Cc1ccc(C(=O)NCCOc2cccc3cccnc23)cc1Cl,"inconclusive: 8.2 µM [cytotoxic, partial curve]",
O=C(/C=C/c1ccccc1)NC(=S)Nc1ccccc1,"inconclusive: 0.0073 µM [rising, full curve, poor fit]",
Nc1ccc(C(=O)N/N=C/c2cn(Cc3cccc(F)c3)c3ccccc23)cc1,"inconclusive: 29.1 µM [cytotoxic, single point]",
CC(=O)c1ccc(N2CCC(c3cc(-c4ccc(Cl)cc4)n[nH]3)CC2)c([N+](=O)[O-])c1,"inconclusive: 16.4 µM [cytotoxic, single point]",
CN(C)c1ncccc1-c1nc2ccccc2s1,"inconclusive: 0.92 µM [cytotoxic, full curve, poor fit]",
O=C(CSc1ccc(Cl)cc1)Nc1ccccc1N1CCN(C(=O)c2ccc(Cl)cc2)CC1,inactive,
Cc1cc2occ(CC(=O)N(C)CC(=O)Nc3ccccc3Br)c2cc1C,"inconclusive: 20.6 µM [cytotoxic, single point]",
Cc1c(CCC(=O)N2CCC[C@H]2C(=O)O)c(=O)oc2cc3oc4c(c3cc12)CCCC4,inactive,
CC(C)Nc1nc(Nc2ccc(F)cc2)c2sccc2n1,"inconclusive: 5.8 µM [cytotoxic, full curve]",
Cc1cc(NC(=O)CSc2nc(-c3ccccc3)cs2)no1,"inconclusive: 18.4 µM [cytotoxic, single point]",
OC(COCc1ccc(Cl)cc1)CN1CCCCC1 (stereo unspecified),"inconclusive: 29.1 µM [rising, single point]",
COc1cc(CN(C)c2ccc(S(=O)(=O)N3CCCC3)cn2)ccc1OC(F)F,"inconclusive: 29.1 µM [cytotoxic, single point]",
O/N=C/c1ccccc1OCc1ccccc1F,"inconclusive: 8.2 µM [rising, partial curve, poor fit]",
Cc1ccnn1CCC(=O)O,inactive,
[N-]=C=C1C(=O)NC(=O)C([n+]2ccc(-c3ccncc3)cc2)C1c1ccccc1C(F)(F)F (stereo unspecified),,inconclusive: 31%

# Eight structures out of the list, arranged by heavy-atom count, high to low.
Compound,Potency,"activity change, negative = cytotoxicity"
O=C(CSc1ccc(Cl)cc1)Nc1ccccc1N1CCN(C(=O)c2ccc(Cl)cc2)CC1,inactive,
[N-]=C=C1C(=O)NC(=O)C([n+]2ccc(-c3ccncc3)cc2)C1c1ccccc1C(F)(F)F (stereo unspecified),,inconclusive: 31%
Nc1ccc(C(=O)N/N=C/c2cn(Cc3cccc(F)c3)c3ccccc23)cc1,"inconclusive: 29.1 µM [cytotoxic, single point]",
COc1ccc(OC)c2sc(NC(=O)CCSc3ccccc3)nc12,inactive,
Cc1ccc(C(=O)NCCOc2cccc3cccnc23)cc1Cl,"inconclusive: 8.2 µM [cytotoxic, partial curve]",
COc1ccc(CNc2cccc3[nH]c(C(F)(F)F)nc23)cc1,inactive,
O=C(/C=C/c1ccccc1)NC(=S)Nc1ccccc1,"inconclusive: 0.0073 µM [rising, full curve, poor fit]",
O/N=C/c1ccccc1OCc1ccccc1F,"inconclusive: 8.2 µM [rising, partial curve, poor fit]",

# Carrying on.

Compound,Potency,"activity change, negative = cytotoxicity"
Cc1sc2nc(C3CC3)nc(N3CCN(C(=O)c4ccccc4F)CC3)c2c1C,"inconclusive: 8.2 µM [cytotoxic, partial curve, poor fit]",
CCCCN(C(=O)c1ccc(COc2ccccc2)o1)c1c(N)n(CC(C)C)c(=O)[nH]c1=O,"inconclusive: 32.6 µM [cytotoxic, single point]",
Cc1ccc(OCCn2cc(/C=C(\C#N)C(=O)NCC3CCCO3)c3ccccc32)cc1C (stereo unspecified),"inconclusive: 25.9 µM [cytotoxic, partial curve, poor fit]",
Cc1ccc(S(=O)(=O)Nc2ccc(Br)cc2C(NCC(=O)O)c2ccccc2)cc1 (stereo unspecified),"inconclusive: 20.6 µM [cytotoxic, single point]",
Nc1ccc(Cc2ccc(N)c(O)c2)cc1O,inactive,
FC(F)(F)c1cccc(Cc2noc(CN(Cc3ccccn3)CC3CCCO3)n2)c1 (stereo unspecified),inactive,
COc1ccc(NC(=O)CSc2ccccc2)c(OC)c1,inactive,
Cc1cccc(N2CCN(C(=O)C3CCN(S(=O)(=O)c4cccs4)CC3)CC2)c1C,inactive,
CC12CC(c3ccccc3O1)N(C(=O)c1ccco1)C(=S)N2c1ccccc1 (stereo unspecified),inactive,
O=C(CCC(NC(=O)OCc1ccccc1)C(=O)O)OCc1ccccc1 (stereo unspecified),"inconclusive: 29.1 µM [rising, single point]",
CC(=O)Nc1cccc(OCC(O)Cn2c(C)nc3ccccc32)c1 (stereo unspecified),inactive,
O=C(NCC(=O)N1CCC(Cc2ccccc2)CC1)c1ccccc1F,"inconclusive: 14.6 µM [cytotoxic, partial curve]",
CCN(CC)C(=O)C1CCCN(Cc2cccc(F)c2)C1 (stereo unspecified),"inconclusive: 11.6 µM [cytotoxic, partial curve, poor fit]",
O=C(c1ccc(Br)cc1)c1cc([N+](=O)[O-])ccc1N1CCCCC1,"inconclusive: 0.731 µM [cytotoxic, full curve, poor fit]",
O=C(CN1CCCCCC1)Nc1ccc(F)c(F)c1,inactive,
Cn1nnnc1Sc1ncnc2scc(-c3ccc[nH]3)c12,"inconclusive: 29.1 µM [cytotoxic, single point]",
Cc1csc(SCc2nc3sc4c(c3c(=O)[nH]2)CCC4)n1,active: 5.17 µM,
Nc1nonc1-c1nc2ccccc2n1Cc1ccc(F)cc1,"inconclusive: 29.1 µM [cytotoxic, single point]",
Cc1cc(Cl)ccc1OCCCC(=O)NC1CCN(C)CC1,"inconclusive: 9.2 µM [cytotoxic, partial curve]",
CN(C)c1ccc(CNC(=O)CN(C)S(=O)(=O)c2ccc3c(c2)c(=O)n(C)c(=O)n3C)cc1,"inconclusive: 29.1 µM [rising, single point]",
Cc1ccc(-n2nnc3c(SCC(=O)NCc4ccco4)ncnc32)cc1,"inconclusive: 29.1 µM [cytotoxic, single point]",
CN(C)c1ccc(C(=O)c2ccc(N(C)C)c(N)c2)cc1N,"inconclusive: 29.1 µM [cytotoxic, partial curve, poor fit]",
O=C(NC1CCCCC1)c1nc(-c2c(F)cccc2F)oc1-c1ccccc1,"inconclusive: 10.3 µM [cytotoxic, partial curve, poor fit]",

# Source: PubChem BioAssay AID1347076 (National Center for Advancing Translational Sciences (NCATS), 2019)
